Results: PMC3311585
These are yes or no findings as the source states them, for the method shown. In cells and extracts the contact can be indirect. Some binding calls cover weakened binding; strength is not graded here.

Protein sequences, listed by entry. Tags and fused reporters are not part of them. Lines headed by an entry give the natural chain unless they say otherwise; changes in a name come on top.
UniProt P08514: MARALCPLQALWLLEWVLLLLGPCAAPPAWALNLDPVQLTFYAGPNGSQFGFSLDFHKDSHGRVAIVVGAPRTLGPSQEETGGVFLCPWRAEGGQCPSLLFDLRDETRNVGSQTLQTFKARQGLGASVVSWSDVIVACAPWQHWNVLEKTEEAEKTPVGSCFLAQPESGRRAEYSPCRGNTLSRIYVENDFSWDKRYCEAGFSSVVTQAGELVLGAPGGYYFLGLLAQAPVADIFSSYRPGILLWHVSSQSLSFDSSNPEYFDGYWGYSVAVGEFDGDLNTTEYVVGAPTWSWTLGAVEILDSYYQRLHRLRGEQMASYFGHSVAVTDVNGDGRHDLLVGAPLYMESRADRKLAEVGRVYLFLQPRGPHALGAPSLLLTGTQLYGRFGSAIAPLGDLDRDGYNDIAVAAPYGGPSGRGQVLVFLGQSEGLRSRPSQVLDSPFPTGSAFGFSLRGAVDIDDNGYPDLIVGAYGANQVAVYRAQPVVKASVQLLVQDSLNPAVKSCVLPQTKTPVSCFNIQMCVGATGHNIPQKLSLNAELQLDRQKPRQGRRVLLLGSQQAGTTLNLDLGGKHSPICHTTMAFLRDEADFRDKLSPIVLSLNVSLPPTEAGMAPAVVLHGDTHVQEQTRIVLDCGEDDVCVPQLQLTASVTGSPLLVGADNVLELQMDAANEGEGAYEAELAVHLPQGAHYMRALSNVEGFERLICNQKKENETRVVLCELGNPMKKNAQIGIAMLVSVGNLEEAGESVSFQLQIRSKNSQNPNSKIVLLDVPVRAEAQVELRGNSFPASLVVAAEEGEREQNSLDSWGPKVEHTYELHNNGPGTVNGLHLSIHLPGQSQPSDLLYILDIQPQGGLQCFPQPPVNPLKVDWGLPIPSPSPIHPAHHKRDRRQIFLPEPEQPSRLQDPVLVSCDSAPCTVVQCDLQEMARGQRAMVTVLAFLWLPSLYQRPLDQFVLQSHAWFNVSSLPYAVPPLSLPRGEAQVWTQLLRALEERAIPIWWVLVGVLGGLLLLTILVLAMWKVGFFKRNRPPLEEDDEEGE
UniProt Q96AC1: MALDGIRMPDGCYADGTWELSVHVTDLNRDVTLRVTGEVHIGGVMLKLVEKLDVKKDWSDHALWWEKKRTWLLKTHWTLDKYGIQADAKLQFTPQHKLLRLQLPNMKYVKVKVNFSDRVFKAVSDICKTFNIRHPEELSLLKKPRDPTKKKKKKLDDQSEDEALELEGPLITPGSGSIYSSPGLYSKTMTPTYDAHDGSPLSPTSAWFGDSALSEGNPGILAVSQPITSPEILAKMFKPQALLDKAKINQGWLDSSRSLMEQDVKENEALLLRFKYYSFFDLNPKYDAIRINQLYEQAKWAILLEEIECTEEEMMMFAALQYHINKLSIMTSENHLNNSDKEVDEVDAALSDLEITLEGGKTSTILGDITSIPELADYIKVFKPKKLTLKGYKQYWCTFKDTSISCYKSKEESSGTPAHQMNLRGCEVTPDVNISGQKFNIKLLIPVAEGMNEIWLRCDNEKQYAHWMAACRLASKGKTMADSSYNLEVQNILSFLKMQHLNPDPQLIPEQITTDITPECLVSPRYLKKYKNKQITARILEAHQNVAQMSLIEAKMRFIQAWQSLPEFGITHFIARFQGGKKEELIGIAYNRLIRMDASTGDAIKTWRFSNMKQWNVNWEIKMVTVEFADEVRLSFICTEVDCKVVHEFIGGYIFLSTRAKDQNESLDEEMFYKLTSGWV
UniProt P26039: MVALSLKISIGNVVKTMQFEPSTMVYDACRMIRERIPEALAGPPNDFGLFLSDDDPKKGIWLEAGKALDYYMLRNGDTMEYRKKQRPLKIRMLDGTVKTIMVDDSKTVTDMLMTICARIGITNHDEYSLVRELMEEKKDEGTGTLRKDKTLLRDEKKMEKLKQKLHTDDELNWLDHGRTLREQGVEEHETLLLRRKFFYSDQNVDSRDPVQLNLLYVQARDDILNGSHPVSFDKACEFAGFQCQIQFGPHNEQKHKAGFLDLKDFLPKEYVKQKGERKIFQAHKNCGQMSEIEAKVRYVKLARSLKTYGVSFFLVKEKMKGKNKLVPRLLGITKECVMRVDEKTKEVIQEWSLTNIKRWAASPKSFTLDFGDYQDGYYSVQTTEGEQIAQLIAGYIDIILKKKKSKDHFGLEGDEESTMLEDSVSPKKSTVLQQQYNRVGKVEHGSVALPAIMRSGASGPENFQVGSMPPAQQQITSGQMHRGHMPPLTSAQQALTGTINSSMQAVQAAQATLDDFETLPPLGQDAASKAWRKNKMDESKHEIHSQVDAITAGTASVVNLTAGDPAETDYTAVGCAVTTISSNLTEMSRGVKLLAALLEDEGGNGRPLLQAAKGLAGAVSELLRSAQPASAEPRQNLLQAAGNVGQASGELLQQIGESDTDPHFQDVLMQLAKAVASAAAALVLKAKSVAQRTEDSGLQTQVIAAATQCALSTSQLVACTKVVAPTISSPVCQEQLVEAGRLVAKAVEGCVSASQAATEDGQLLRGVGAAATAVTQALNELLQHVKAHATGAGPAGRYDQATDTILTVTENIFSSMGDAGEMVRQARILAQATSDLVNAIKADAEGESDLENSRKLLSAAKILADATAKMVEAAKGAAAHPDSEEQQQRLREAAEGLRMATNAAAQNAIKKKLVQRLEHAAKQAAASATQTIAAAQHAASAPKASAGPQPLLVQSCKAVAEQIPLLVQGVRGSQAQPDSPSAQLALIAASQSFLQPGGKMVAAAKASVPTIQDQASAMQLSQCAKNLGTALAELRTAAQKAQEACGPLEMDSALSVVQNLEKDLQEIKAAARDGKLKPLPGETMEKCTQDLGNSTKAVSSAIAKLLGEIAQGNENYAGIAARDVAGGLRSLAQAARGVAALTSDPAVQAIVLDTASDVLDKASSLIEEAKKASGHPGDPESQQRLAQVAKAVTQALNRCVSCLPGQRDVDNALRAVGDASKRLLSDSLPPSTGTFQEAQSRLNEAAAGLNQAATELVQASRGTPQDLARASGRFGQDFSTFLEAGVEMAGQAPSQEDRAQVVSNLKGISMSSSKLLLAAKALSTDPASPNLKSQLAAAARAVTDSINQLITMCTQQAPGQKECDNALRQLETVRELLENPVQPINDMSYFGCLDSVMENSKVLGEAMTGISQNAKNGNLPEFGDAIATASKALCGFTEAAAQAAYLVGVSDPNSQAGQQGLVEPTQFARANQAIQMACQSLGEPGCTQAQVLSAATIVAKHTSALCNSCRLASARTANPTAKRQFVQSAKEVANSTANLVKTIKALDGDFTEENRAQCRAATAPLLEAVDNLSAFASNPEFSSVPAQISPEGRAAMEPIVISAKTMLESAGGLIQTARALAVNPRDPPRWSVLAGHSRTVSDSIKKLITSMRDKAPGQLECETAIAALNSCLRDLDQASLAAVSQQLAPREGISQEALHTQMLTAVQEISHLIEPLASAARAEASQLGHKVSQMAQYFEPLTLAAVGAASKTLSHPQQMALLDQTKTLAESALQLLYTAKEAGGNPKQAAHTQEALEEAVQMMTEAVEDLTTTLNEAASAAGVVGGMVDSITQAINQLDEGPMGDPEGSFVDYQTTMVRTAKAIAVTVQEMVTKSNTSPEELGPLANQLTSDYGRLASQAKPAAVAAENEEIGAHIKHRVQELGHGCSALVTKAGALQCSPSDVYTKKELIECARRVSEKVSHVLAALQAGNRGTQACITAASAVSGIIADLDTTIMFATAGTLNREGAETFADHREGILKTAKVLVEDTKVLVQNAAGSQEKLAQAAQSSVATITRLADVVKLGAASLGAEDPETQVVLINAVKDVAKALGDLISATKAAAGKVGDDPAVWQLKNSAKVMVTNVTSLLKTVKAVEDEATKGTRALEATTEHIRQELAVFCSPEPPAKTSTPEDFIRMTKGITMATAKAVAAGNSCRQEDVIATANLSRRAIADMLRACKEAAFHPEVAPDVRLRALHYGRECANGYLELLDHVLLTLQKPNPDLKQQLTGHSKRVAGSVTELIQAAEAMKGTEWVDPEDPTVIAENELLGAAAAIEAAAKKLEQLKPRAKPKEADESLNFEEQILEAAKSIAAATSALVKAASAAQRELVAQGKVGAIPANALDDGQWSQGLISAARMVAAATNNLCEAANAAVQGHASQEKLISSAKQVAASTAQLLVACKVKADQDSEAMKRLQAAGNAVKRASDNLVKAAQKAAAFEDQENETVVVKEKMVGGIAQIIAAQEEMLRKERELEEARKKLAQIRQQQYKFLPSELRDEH

Legend:
[1] = molecular target: αIIb-VCβ3 (integrin αIIbβ3 with the C-terminal half of Venus fused to the C-terminus of αIIb) (UniProt P08514); assay: split reporter; BiFC of Venus halves (VN on talin or kindlin-2, VC on αIIb) in living CHO cells, read by flow cytometry; signal normalised to αIIbβ3 expression (antibody D57); doxycycline induction; also with kindlin-2 shRNA knock-down or over-expression of kindlins, THD or talin
[2] = molecular target: αIIb-VCβ3 (integrin αIIbβ3 with the C-terminal half of Venus fused to the C-terminus of αIIb) (UniProt P08514); assay: split reporter; BiFC in αIIb-VCβ3 CHO cells plated on fibrinogen for 45 min, fixed, stained with D57, deconvolution microscopy; ratio of BiFC to αIIbβ3 fluorescence at the membrane edge; control or kindlin-2 shRNA

Row | binding [1] | binding [2] | Substance
1 | binds | – | VN-kindlin-2 (Venus N-terminal moiety fused to kindlin-2) (from UniProt Q96AC1 1-680)
2 | binds | binds | VN-talin (Venus N-terminal moiety fused to the N-terminus of talin) (from UniProt P26039 1-2541)
